For three molecules, binding results are on record in publication PMC10366545, “Phosphoregulation of DNA repair via the Rad51 auxiliary factor Swi5–Sfr1” (The Journal of Biological Chemistry, 2023).

Chains of the proteins cited; added tags and fusions are not shown. Lines headed by an entry give the natural chain unless they say otherwise; changes in a name come on top.
UniProt Q9USV1: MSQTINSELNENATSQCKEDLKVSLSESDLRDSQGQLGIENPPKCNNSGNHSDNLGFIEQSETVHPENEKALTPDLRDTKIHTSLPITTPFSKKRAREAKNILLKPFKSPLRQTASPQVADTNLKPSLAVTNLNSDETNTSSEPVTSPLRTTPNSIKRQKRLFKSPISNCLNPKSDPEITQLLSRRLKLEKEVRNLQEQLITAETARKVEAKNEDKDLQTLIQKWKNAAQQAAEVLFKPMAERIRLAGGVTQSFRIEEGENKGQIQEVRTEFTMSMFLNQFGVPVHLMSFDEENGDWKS

The target of one assay is T1, Rad51 (S. pombe) (UniProt P36601).
T1 sequence: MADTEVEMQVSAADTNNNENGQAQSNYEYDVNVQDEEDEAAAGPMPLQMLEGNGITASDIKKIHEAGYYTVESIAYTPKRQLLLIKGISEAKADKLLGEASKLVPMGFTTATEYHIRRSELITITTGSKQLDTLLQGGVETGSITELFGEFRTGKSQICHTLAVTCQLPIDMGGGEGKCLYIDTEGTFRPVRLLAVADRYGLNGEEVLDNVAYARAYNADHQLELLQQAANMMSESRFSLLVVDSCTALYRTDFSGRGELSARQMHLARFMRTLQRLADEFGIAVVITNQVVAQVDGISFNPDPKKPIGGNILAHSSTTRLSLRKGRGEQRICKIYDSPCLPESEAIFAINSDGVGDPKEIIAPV
Description: pull-down; filament binding assay: Rad51 (3.33 μM) filaments on circular ssDNA (10 μMnt) held on streptavidin beads through a biotinylated oligonucleotide; 3.33 μM S5S1 added, 5 min 37 °C; 25 mM Tris-Cl 7.5, 100 mM NaCl, 3.5 mM MgCl2, 2 mM ATP, 0.5 mM TCEP, 5% glycerol, 0.05% Tween-20; Sfr1 signal normalised to Rad51, relative to wildtype, n = 3; both purified.

The target of assay [1] is Swi5–Sfr1 Rad51 interaction mutant complex (S5S1-7A) (S. pombe). The experiment in a line: pull-down; in solution; nickel resin holds hexahistidine-tagged S5S1; 500 nM each protein; 30 mM Tris-Cl 7.5, 100 mM KCl, 5 mM MgCl2, 1 mM ATP, 0.25 mM TCEP, 5% glycerol, 0.05% Tween-20; 30 °C 15 min, then resin 1 h at 4 °C; SDS-PAGE, Coomassie; both purified.
The target in assay [2] is Sfr1 7A mutant (Sfr1 chain of S5S1-7A) (S. pombe) (UniProt Q9USV1). Description: SEC; His6-Sfr1 co-expressed with Swi5 in E. coli and purified together as a complex; 16/60 Superdex 200 pg in H buffer (25 mM Hepes-KOH pH 7.5, 10% glycerol, 0.5 mM TCEP) with 200 mM KCl, 4 °C; both purified. (Size exclusion chromatography separates by hydrodynamic size, large species first.)

Results are given in words; binding and its absence hold for the method and conditions named. Binding can be weak; no strength is given.

“Swi5–Sfr1 Rad51 interaction mutant complex (S5S1-7A) (S. pombe)”: in the assay with Rad51 (S. pombe), the binding entry is listed as “binds weakly”.

B1: Rad51 (natural protein, S. pombe, UniProt P36601 1-365, looked up)
chain: MADTEVEMQVSAADTNNNENGQAQSNYEYDVNVQDEEDEAAAGPMPLQMLEGNGITASDIKKIHEAGYYTVESIAYTPKRQLLLIKGISEAKADKLLGEASKLVPMGFTTATEYHIRRSELITITTGSKQLDTLLQGGVETGSITELFGEFRTGKSQICHTLAVTCQLPIDMGGGEGKCLYIDTEGTFRPVRLLAVADRYGLNGEEVLDNVAYARAYNADHQLELLQQAANMMSESRFSLLVVDSCTALYRTDFSGRGELSARQMHLARFMRTLQRLADEFGIAVVITNQVVAQVDGISFNPDPKKPIGGNILAHSSTTRLSLRKGRGEQRICKIYDSPCLPESEAIFAINSDGVGDPKEIIAPV
notes: Rad51 recombinase, S. pombe; also called S. pombe Rad51; Rad51-ssDNA filament
On to B1, for which the binding entry in assay [1] was “binds weakly”.

B2: Swi5 (protein, UniProt Q9UUB7 1-85)
chain: MEKSQLESRVHLLEQQKEQLESSLQDALAKLKNRDAKQTVQKHIDLLHTYNEIRDIALGMIGKVAEHEKCTSVELFDRFGVNGSE
Turning to B2, the binding entry in assay [2] was “binds”.
